# From article PMC12670160, “A drug-repurposing screen of FDA- and EMA-approved drugs identifies two NF-κB inhibitors active against eumycetoma” (Journal of Antimicrobial Chemotherapy, 2025)
# Structures can show the parent of a compound that is named as a salt. Out of some 5,300 compounds screened, about 130 (2.5%) showed an effect of 50% or more. Some of the results follow. Square brackets hold non-standard residues; d marks the D form. Peptide text beside a SMILES is read from it. dTrp(2-Me) = Cc1[nH]c2ccccc2c1C[C@@H](N)C(=O)O
# Tested on: M. mycetomatis strain mm55
# Details: primary screen, metabolic activity vs growth control; 96 h, 2 µM; inhibitor
row,SMILES,% viability
1,"COc1cc([C@@H]2c3cc4c(cc3[C@@H](O[C@@H]3O[C@@H]5CO[C@@H](c6cccs6)O[C@H]5[C@H](O)[C@H]3O)[C@H]3COC(=O)[C@H]23)OCO4)cc(OC)c1O [ONC0002385, teniposide]",126.4%
2,"Cc1ncc(C[n+]2csc(CCO[P@](=O)(O)OP(=O)(O)O)c2C)c(N)n1 [ONC0002796, thiamine pyrophosphate chloride]",94.34%
3,"O=C1NC(=O)/C(=C/c2ccc3c(c2)OC(F)(F)O3)S1 [ONC0005203, as604850]",141.3%
4,"CCCCOc1cc(CC2CNC(=O)N2)ccc1OC (stereo not drawn) [ONC0001719, ro201724]",81.8%
5,"[H]/N=C(/N)NS(=O)(=O)c1ccc(N)cc1 [ONC0000656, sulfaguanidine]",136.5%
6,"CCN(CC)C(=O)c1ccc(C2=CC3(CCNCC3)Oc3cccc(O)c32)cc1 [ONC0004697, adl5859 hcl]",106.5%
7,"OCc1ccccc1O [ONC0003422, salicyl alcohol]",114.5%
8,"CCN(CC)CCCC(C)Nc1nc(C)cc(Nc2ccc3nc(C)cc(N)c3c2)n1 (stereo not drawn) [ONC0000008, nsc23766]",97.4%
9,"CNC(=O)[C@H]1O[C@@H](n2cnc3c(NCc4cccc(I)c4)nc(Cl)nc32)[C@H](O)[C@@H]1O [ONC0000076, cf102]",94.23%
10,"COc1c(N2CCNC(C)C2)c(F)cc2c(=O)c(C(=O)O)cn(C3CC3)c12 (stereo not drawn) [ONC0003878, gatifloxacin]",69%
11,"CCOC(=O)[C@@](C)(N)Cc1ccc(O)c(O)c1 [ONC0002917, methyldopate]",83.67%
12,"O=C(c1ccccc1)c1ccc2n1CCC2C(=O)O (stereo not drawn) [ONC0002333, ketorolac tromethamine]",86.49%
13,"O=C(O)c1ccccc1NC(=O)N1CCC(c2ccccc2C(F)(F)F)CC1 [ONC0001714, a1120]",62.04%
14,"COCCNC(=O)Cn1cnc([N+](=O)[O-])n1 [ONC0002969, sanazole]",82.13%
15,"C#CCC(Cc1cnc2nc(N)nc(N)c2n1)c1ccc(C(=O)N[C@@H](CCC(=O)O)C(=O)O)cc1 (stereo partly drawn) [ONC0004878, pralatrexatefolotyn]",130.7%
16,"CC(C)(C)NCC(O)COc1cccc2[nH]c(=O)[nH]c12 (stereo not drawn) [ONC0000086, cgp12177]",91%
17,"O=C(C[S+]([O-])Cc1ccco1)NC/C=C\COc1cc(CN2CCCCC2)ccn1 (stereo not drawn) [ONC0004911, lafutidine]",110.6%
18,"CCOC(=O)NNc1ccc(N(CC)CC(C)O)nn1 (stereo not drawn) [ONC0001944, cadralazine]",72.29%
19,"CN(C)CC(c1ccc(O)cc1)C1(O)CCCCC1 (stereo not drawn) [ONC0003892, desvenlafaxine succinate]",60.72%
20,"C[n+]1cccc(C(=O)O)c1 [ONC0003448, trigonellinehcl]",47.48%
21,"O=C(NOCC(O)CO)c1cc(Br)c(F)c(F)c1Nc1ccc(I)cc1F (stereo not drawn) [ONC0004603, pd318088]",57.16%

# A second format for 4 compounds above:
row	SMILES	% viability
1	COc1cc([C@@H]2c3cc4c(cc3[C@@H](O[C@@H]3O[C@@H]5CO[C@@H](c6cccs6)O[C@H]5[C@H](O)[C@H]3O)[C@H]3COC(=O)[C@H]23)OCO4)cc(OC)c1O [ONC0002385, teniposide]	126.4%
2	Cc1ncc(C[n+]2csc(CCO[P@](=O)(O)OP(=O)(O)O)c2C)c(N)n1 [ONC0002796, thiamine pyrophosphate chloride]	94.34%
3	O=C1NC(=O)/C(=C/c2ccc3c(c2)OC(F)(F)O3)S1 [ONC0005203, as604850]	141.3%
4	CCCCOc1cc(CC2CNC(=O)N2)ccc1OC (stereo not drawn) [ONC0001719, ro201724]	81.8%

# Later entries:

row,SMILES,% viability
1,"NC(=O)CCCCn1ccc(/N=C(\N)NCC(F)(F)F)n1 [ONC0000845, ici162846]",70.25%
2,"CN(CC[C@@H](Oc1ccc(-c2ccccc2)cc1)c1ccc(F)cc1)CC(=O)O [ONC0001910, alx5407]",63.49%
3,"CCCCCCCCCCCCCCCCCC[S+](CCC)c1ccccc1C(=O)OCC (stereo not drawn) [ONC0005529, ac1ndss5]",106.8%
4,"O=[N+]([O-])NC1=NCCN1Cc1ccc(Cl)nc1 [ONC0002757, imidacloprid]",125.1%
5,"Cc1ccc2nc(N)[nH]c(=O)c2c1Sc1ccncc1 [ONC0000279, nolatrexed dihydrochloride]",63.86%
6,"C=C[C@]1(C)CC[C@@H](C(=C)C)C[C@H]1C(=C)C [ONC0003857, betaelemene]",65.57%
7,"O=C(Nc1ccccc1Br)N[C@@H]1CCN(c2ccc(C(F)(F)F)cn2)C1 [ONC0004753, sb705498]",92.91%
8,"COC(=O)[C@@]12OC[C@]34[C@H]([C@@H](O)[C@@H]1O)[C@@]1(C)CC(=O)C(O)=C(C)[C@@H]1C[C@H]3OC(=O)[C@H](OC(=O)/C=C(\C)C(C)C)[C@@H]24 [ONC0001105, bruceantin]",72.53%
9,"COc1ccc(S(=O)(=O)N(CCO)c2ccccc2CN(C)C/C=C/c2ccc(Cl)cc2)cc1 [ONC0005589, kn93]",94.36%
10,"COC(=O)N1CC[C@@H]2[C@H]1CCC[C@@]2(O)C#Cc1cccc(C)c1 [ONC0002206, mavoglurant]",86.89%
11,"C=CCN1C[C@H](C)N([C@H](c2ccc(C(=O)N(CC)CC)cc2)c2cccc(O)c2)C[C@H]1C [ONC0001565, bw373u86]",111%
12,"O=C(O)CCc1cc(I)c(Oc2ccc(O)cc2)c(I)c1 [ONC0002173, diiodothyropropionicacid]",86.95%
13,"CSc1ccccc1Nc1nc(N2CCNCC2)nc2c(NCC3CC3)ncnc12.Cl [ONC0001097, khkin1 hydrochloride]",76.94%
14,"c1ccc(CNc2ncnc3nc[nH]c23)cc1 [ONC0002348, 6benzylaminopurine]",76.84%
15,"NS(=O)(=O)c1ccc(-n2nc(C(F)(F)F)cc2-c2ccc(Cl)cc2)cc1 [ONC0001433, sc236]",79.78%
16,"O=C1NC(=O)C(=Cc2ccc(-c3ccc(F)cc3)o2)S1 (stereo in doubt) [ONC0005200, cay10505]",213%
17,"CC(C)(O)c1ccccc1CC[C@@H](SCC1(CC(=O)O)CC1)c1cccc(/C=C/c2ccc3ccc(Cl)cc3n2)c1 [ONC0004006, montelukast sodium]",92.07%
18,"CC(C)c1cc(C(C)C)c(-c2csc(N(CCN(C)C)Cc3cccnc3)n2)c(C(C)C)c1 [ONC0005406, foropafant]",117%
19,"O=C1NC(=O)C(c2ccccc2)(c2ccccc2)N1 [ONC0000481, phenytoin sodium]",60.33%
20,"CN1CCC2=C(C1)C(c1ccccc1)c1ccccc12 (stereo not drawn) [ONC0001922, phenindamine]",47.96%
21,"C1=C/COCc2cc(ccc2OCCN2CCCC2)Nc2nccc(n2)-c2cccc(c2)COC/1 [ONC0004380, pacritinib sb1518]",107.6%

row,SMILES,% viability
1,"O=C(Nc1ccccc1)Nc1ccc(-c2ccc(C(=O)[C@@H]3CCC[C@H]3C(=O)O)cc2)cc1 [ONC0004312, a922500]",88.03%
2,"Nc1ccc(C(=O)OCC(O)CO)cc1 (stereo not drawn) [ONC0005452, lisadimate]",96.74%
3,"OC[C@@H](O)[C@@H](O)[C@@H](O)CO [ONC0002737, ribitol adonitol]",100.4%
4,"CN(C)C/C=C/C(=O)Nc1cc2c(Nc3ccc(F)c(Cl)c3)ncnc2cc1O[C@H]1CCOC1 [ONC0000723, afatinib dimaleate]",74.8%
5,"CN1Cc2c(N)cccc2C(c2ccccc2)C1 (stereo not drawn) [ONC0001212, nomifensine]",87.63%
6,"CN(C)C(=O)Oc1ccc[n+](C)c1 [ONC0004690, pyridostigmine bromide mestinon]",116.6%
7,"Nc1c2c(nc3ccccc13)CCCC2O (stereo not drawn) [ONC0002339, hydroxytacrinemaleaters]",82.36%
8,"Nc1ccn([C@@H]2CS[C@H](CO)O2)c(=O)n1 [ONC0002447, lamivudine]",126.7%
9,"Cc1cc(N)c2ccccc2[n+]1CCCCCCCCCC[n+]1c(C)cc(N)c2ccccc21 [ONC0003143, dequalinium chloride]",80.42%
10,"COc1ccccc1OCC(O)COC(N)=O (stereo not drawn) [ONC0000414, methocarbamol]",76.82%
11,"COc1cc(N2CCC(N3CCN(C)CC3)CC2)ccc1Nc1ncc(Cl)c(Nc2ccccc2P(C)(C)=O)n1 [ONC0000933, brigatinib]",88.97%
12,"Cc1[nH]c2ccccc2c1C[C@@H](NC(=O)[C@@H](N)Cc1cnc[nH]1)C(=O)N[C@@H](C)C(=O)N[C@@H](Cc1c[nH]c2ccccc12)C(=O)N[C@H](Cc1ccccc1)C(=O)N[C@@H](CCCCN)C(N)=O [ONC0005614, examorelin] (H-H[dTrp(2-Me)]AW[dF]K-NH2)",66.44%
13,"NNC(=O)CSc1nc2scc(-c3ccccc3)c2c(=O)n1-c1ccccc1 [ONC0002540, ldn27219]",64.26%
14,"CC(NC(=O)CCc1nc(=O)c2ccccc2[nH]1)c1ccccc1 (stereo not drawn) [ONC0005174, me0328]",117.9%
15,"COc1ccc(C(=O)/C(Br)=C/C(=O)O)cc1 [ONC0005546, bromebricacid]",94.54%
16,"Cc1c(CN(C)C(=O)/C=C/c2cnc3c(c2)CCC(=O)N3)oc2ccccc12 [ONC0001083, afn1252]",61.58%
17,"COc1cc(OC)nc(O[C@H](C(=O)O)C(OC)(c2ccccc2)c2ccccc2)n1 [ONC0002004, darusentan]",83.46%
18,"O=C(NC1CCN(CCc2c[nH]c3ccccc23)CC1)c1ccccc1 [ONC0001966, indoramin]",68.77%
19,"O=C1/C(=C/c2ccccc2)C(NC2CCCCC2)c2ccccc21 (stereo not drawn) [ONC0002937, cid5458317]",97.61%
20,"CCNC(=O)/C=C/c1cccc(Br)c1 [ONC0000527, cinromide]",96.44%
21,"NC1CCN(c2nc3c(cc2F)c(=O)c(C(=O)O)cn3-c2ccc(F)cc2F)C1 (stereo not drawn) [ONC0003219, tosufloxacin]",74.9%
